The results in this text go back to patent US9486427B2, “Administration of aerosolised iloprost” (VECTURA GMBH, priority 2012, dated 2016).

The data set in a line: In vitro nebulisation study, AKITA2 APIXNEB, radiolabelled 50 μg/mL iloprost solution, aerosol captured on inhalation filters (Example 1). Here is the method: In an in vitro nebulisation study, the feasibility of delivering aerosolised single doses of 2.5 μg and of 5 μg of iloprost to the mouthpiece of a nebuliser was evaluated. A nebuliser system comprising an electronic vibrating mesh nebuliser (by PARI GmbH, incorporating the Touchspray Technology®; having some similarity to PARI's eFlow® nebuliser) and a device for controlling the breathing pattern (AKITA®) was configured by means of an electronic chip card to deliver an aerosol from an aqueous solution at a flow rate of 15 L/min. The inhalation system is also known as AKITA^2 APIXNEB™ (by Activaero GmbH). For the purpose of enabling the control of the breathing pattern of a patient using the AKITA^2 unit, the nebuliser handset device in the APIXNEB™ system differs from the eFlow® system by modifications allowing it be connected to the AKITA^2 unit through an electric cord and an additional tube for providing e.g. a predetermined inspiratory air flow. Further details on the device may be taken e.g. from the Fact Sheet AKITA^2 APIXNEB™ (Art.-Nr. 05DK0105| V 1.0/Aufl.1). The inspiration time per breath was set at 4.1 seconds, corresponding to an inhalation volume of 1.025 mL. The nebulisation time was adjusted to 3.1 seconds, which corresponds to an aerosol volume of 775 mL. The device was also programmed to deliver 250 mL of aerosol-free air after emitting the aerosol during every inspiration cycle.
Two different meshes were used in the nebuliser. Both had around 3,000 openings of approx. 2 μm in diameter.
Per test run an aliquot of 0.5 mL of an aqueous composition comprising 50 μg/mL of iloprost and the radiolabel ^99mTc in 0.9 wt.-% saline solution was filled into the fluid reservoir of the nebuliser. The inhaler system was activated to aerosolise the solution during series of four simulated breaths. The emitted aerosol was captured by inhalation filters, and the amount of aerosol was determined with a scintillation counter.

For `CC#CCC(C)[C@H](O)/C=C/[C@@H]1[C@H]2C/C(=C/CCCC(=O)O)C[C@H]2C[C@H]1O` (stereo partly drawn) [Iloprost, 5-{(E)-(1S,5S,6R,7R)-7-hydroxy-6[(E)-(3S,4RS)-3-hydroxy-4-methyl-1-octen-6-inyl]-bi-cyclo[3.3.0]octan-3-ylidene}pentanoic acid], the “mean amount of delivered aerosol, as iloprost” value worked out at 5.25 µg (all four breaths, first series of experiments); 5.19 µg (all four breaths, second series of experiments); 2.50 µg (first two breaths, first series of experiments); 2.53 µg (first two breaths, second series of experiments).
